# Measurements published in patent US20260027161A1, “BACTERIAL STRAINS FOR TREATING DISEASE” (MICROBA IP PTY LTD, priority 2021, published 2026).
# Test system: ZO1 expression in T84 cells
# Test: IFNγ-mediated loss of ZO1 expression in T84 cells (immunofluorescence)
# Assay type: cell-based, human
# Conditions: pre-treatment with 1 mM metabolite for 18 hours, IFNγ 48 hours
# Text: Tight junctions (TJs) form a continuous barrier between epithelial cells and act to control paracellular permeability. ZO1 plays a key role in tight junction assembly and we therefore assessed the ability of I. colisanans MH27 supernatant extract to mitigate IFNγ-mediated loss of ZO1 expression in T84 cells. Stimulation with IFNγ caused a marked reduction in ZO1 expression (FIG. 11). […] In contrast, pre-treatment with I. colisanans MH27-1, MH27-2, and MH27-3 supernatant extract amelioratered the IFNγ induced reduction in ZO1 expression (FIG. 11).
# Bacterial culture supernatant extracts were prepared using an Amberlite XAD-7 resin as previously described by Colosimo et al. (supra). Briefly, activated Amberlite XAD-7 resin was added to 150 mL of 3 kDa-filtered cell-free supernatant (10% w/v), and gently shaken overnight at 4° C. The resin was collected, washed with 150 mL of deionized water, and mixed with 50 mL 100% methanol. Following 2 h incubation with gentle shaking, the methanol elution was collected. A second elution in 25 mL of 100% methanol was performed as previously described and the two elution were combined and dried with a rotary evaporator under vacuum. […]
# The ability of I. colisanans MH27-1, MH27-2, and MH27-3 to prevent IFNγ-mediated loss of Zonula Occludens 1 (ZO1) expression was assessed through immunofluorescence staining and confocal microscopy. […]
smiles,measurement,value
NCCC[C@H](N)C(=O)O [Ornithine],IFNγ-induced reduction in ZO1 expression,significantly ameliorated
